Like-named read-outs stand apart in the source and are kept apart here. Some results were stated once for a whole list of compounds, not compound by compound. At least one structure is not confirmed: it was looked up by name or label, or the drawing left a doubt.
Key:
Type in all cases: in vivo
[1] = test system: fall armyworm (Spodoptera frugiperda); assay: Test B: control of fall armyworm, foliar spray on pre-infested maize plant; settings: sprayed at 250 ppm, very good to excellent control
[2] = test system: diamondback moth (Plutella xylostella); assay: Test A: control of diamondback moth, foliar spray on pre-infested radish plant; settings: sprayed at 250 ppm, 6 days at 25° C., very good to excellent control
[3] = test system: potato leafhopper (Empoasca fabae); settings: Soleil bean plant, 6 days

SMILES | control efficacy: feeding damage (40% or less feeding damage and/or 100% mortality) [1] [%] | control efficacy: feeding damage (40% or less feeding damage and/or 100% mortality) [2] [%] | mortality ([3]; sprayed at 50 ppm) [%] | mortality ([3]; sprayed at 250 ppm) [%]
O=c1c(-c2cc(F)cc(F)c2)c([O-])[n+](Cc2cnc(Cl)s2)c2ccccn12 [Compound 499] | ≤ 40 | ≤ 40 |  | 
CC([n+]1c([O-])c(-c2cc(Br)cc(C(F)(F)F)c2)c(=O)n2ccccc21)C(F)(F)F (centres unmarked) [Compound 242] | ≤ 40 | ≤ 40 |  | 
O=c1c(-c2cc(C(F)(F)F)cc(C(F)(F)F)c2)c([O-])[n+](CC2CC2)c2ccccn12 [Compound 187] | ≤ 40 | ≤ 40 |  | 
O=c1c(-c2ccc(F)cc2)c([O-])[n+](Cc2ccc(Cl)nc2Cl)c2ccccn12 [Compound 451] | ≤ 40 |  |  | 
COc1ccc(-c2c([O-])[n+](Cc3cnc(Cl)s3)c3ccccn3c2=O)cc1-c1ccc(Cl)nc1 [Compound 717] | ≤ 40 | ≤ 40 |  | 
O=c1c(-c2cc(Cl)cc(Cl)c2)c([O-])[n+](Cc2ccc(Cl)nc2)c2ccccn12 [Compound 418] | ≤ 40 | ≤ 40 |  | 
CCC[n+]1c([O-])c(-c2cc(Cl)cc(Cl)c2)c(=O)n2ccccc21 [Compound 310] | ≤ 40 | ≤ 40 |  | 
O=c1c(-c2cc(-c3ccc(C(F)(F)F)nc3)cc(C(F)(F)F)c2)c([O-])[n+](Cc2cnc(Cl)s2)c2ccccn12 [Compound 684] | ≤ 40 | ≤ 40 |  | 
O=c1c(-c2ccc(OC(F)(F)F)cc2)c([O-])[n+](CC(F)(F)F)c2ccccn12 [Compound 324] |  | ≤ 40 | ≥ 80 | ≥ 80
COc1ccc(-c2c([O-])[n+](Cc3ccc(Cl)nc3)c3ccccn3c2=O)cc1F [Compound 102] |  | ≤ 40 | ≥ 80 | ≥ 80
COc1ccc(-c2c([O-])[n+](CC(F)(F)F)c3ccccn3c2=O)cc1 [Compound 362] |  | ≤ 40 | ≥ 80 | ≥ 80
CC([n+]1c([O-])c(-c2ccc(F)cc2F)c(=O)n2ccccc21)C(F)(F)F (centres unmarked) [Compound 222] |  | ≤ 40 | ≥ 80 | 
O=c1c(-c2ccccc2)c([O-])[n+](Cc2cnc(Cl)o2)c2ccccn12 [Compound 178] |  | ≤ 40 | ≥ 80 | 
Cc1ccc(C[n+]2c([O-])c(-c3ccccc3)c(=O)n3ccccc32)cn1 [Compound 463] |  | ≤ 40 | ≥ 80 | ≥ 80
O=c1c(-c2ccc3c(c2)CCO3)c([O-])[n+](Cc2ccc(Cl)nc2)c2ccccn12 [Compound 86] |  | ≤ 40 | ≥ 80 | ≥ 80
N#Cc1ccccc1-c1c([O-])[n+](Cc2ccc(Cl)nc2)c2ccccn2c1=O [Compound 422] |  | ≤ 40 |  | ≥ 80
O=c1c(-c2ccccc2)c([O-])[n+](Cc2cnc(Cl)c(Cl)c2)c2ccccn12 [Compound 100] |  | ≤ 40 | ≥ 80 | ≥ 80
COc1ccc(Cl)cc1-c1c([O-])[n+](CC(F)(F)F)c2ccccn2c1=O [Compound 25] |  | ≤ 40 | ≥ 80 | ≥ 80
O=c1c(-c2ccccc2)c([O-])[n+](Cc2cncs2)c2ccccn12 [Compound 220] |  | ≤ 40 | ≥ 80 | 
O=c1c(-c2ccccc2)c([O-])[n+](CC2CC2(F)F)c2ccccn12 (centres unmarked) [Compound 485] |  | ≤ 40 |  | ≥ 80
O=c1c(-c2ccc(F)cc2F)c([O-])[n+](Cc2cnc(Cl)s2)c2sccn12 [Compound 146] |  | ≤ 40 | ≥ 80 | 
O=c1c(-c2cc(Br)cc(OC(F)(F)F)c2)c([O-])[n+](Cc2ccc(Cl)nc2)c2sccn12 [Compound 155] |  | ≤ 40 | ≥ 80 | 
CC([n+]1c([O-])c(-c2ccc(F)cc2)c(=O)n2ccccc21)C(F)(F)F (racemic) [Compound 216] |  | ≤ 40 | ≥ 80 | 
COc1cc(OC)cc(-c2c([O-])[n+](Cc3cnc(Cl)s3)c3sccn3c2=O)c1 [Compound 156] |  | ≤ 40 | ≥ 80 | 

SMILES | control efficacy: feeding damage (40% or less feeding damage and/or 100% mortality) [1] [%] | control efficacy: feeding damage (40% or less feeding damage and/or 100% mortality) [2] [%] | mortality ([3]; sprayed at 50 ppm) [%] | mortality ([3]; sprayed at 250 ppm) [%]
CCC[n+]1c([O-])c(-c2cccc(OC)c2)c(=O)n2ccccc21 [Compound 295] |  | ≤ 40 |  | ≥ 80
O=c1c(-c2cccc(OCC(F)(F)F)c2)c([O-])[n+](CC(F)(F)F)c2ccccn12 [Compound 13] |  | ≤ 40 | ≥ 80 | ≥ 80
O=c1c(-c2ccc(F)cc2)c([O-])[n+](Cc2cnc(Cl)c(Cl)c2)c2ccccn12 [Compound 87] |  | ≤ 40 | ≥ 80 | ≥ 80
O=c1c(-c2ccc(F)cc2Cl)c([O-])[n+](Cc2ccc(Cl)nc2)c2ccccn12 [Compound 64] |  | ≤ 40 | ≥ 80 | 
O=c1c(-c2ccc(F)c(F)c2F)c([O-])[n+](Cc2cnc(Cl)s2)c2ccccn12 [Compound 492] |  | ≤ 40 | ≥ 80 | 
O=c1c(-c2ccc(Cl)cc2Cl)c([O-])[n+](CCC(F)C(F)(F)Cl)c2ccccn12 (racemic) [Compound 374] |  | ≤ 40 | ≥ 80 | 
CC(c1ccc(Cl)nc1)[n+]1c([O-])c(-c2ccccc2)c(=O)n2ccccc21 (centres unmarked) [Compound 460] |  | ≤ 40 | ≥ 80 | ≥ 80
COc1cccc(-c2c([O-])[n+](Cc3ccc(Cl)nc3)c3ccccn3c2=O)c1F [Compound 210] |  | ≤ 40 | ≥ 80 | 
COc1cccc(-c2c([O-])[n+](CC3CC3)c3ccccn3c2=O)c1 [Compound 424] |  | ≤ 40 | ≥ 80 | ≥ 80
Cn1cc(C[n+]2c([O-])c(-c3cccc(-c4ccc(F)nc4)c3)c(=O)n3ccccc32)cn1 [Compound 545] |  | ≤ 40 | ≥ 80 | 
CCC[n+]1c([O-])c(-c2ccc(F)cc2)c(=O)n2ccccc21 [Compound 281] |  | ≤ 40 |  | ≥ 80
O=c1c(-c2cc(Cl)cc(C(F)(F)F)c2)c([O-])[n+](Cc2ccc(Cl)nc2)c2ccccn12 [Compound 52] |  | ≤ 40 | ≥ 80 | ≥ 80
O=c1c(-c2ccc(Cl)cc2Cl)c([O-])[n+](Cc2ccc(Cl)nc2)c2ccccn12 [Compound 77] |  | ≤ 40 | ≥ 80 | ≥ 80
Cc1cc(-c2c([O-])[n+](CC(F)(F)F)c3ccccn3c2=O)ccc1F [Compound 16] |  | ≤ 40 | ≥ 80 | ≥ 80
O=c1c(-c2c(F)ccc(F)c2F)c([O-])[n+](Cc2ccc(Cl)nc2)c2ccccn12 [Compound 651] |  | ≤ 40 | ≥ 80 | 
O=c1c(-c2ccc(F)c(F)c2)c([O-])[n+](CC(F)(F)F)c2ccccn12 [Compound 23] |  | ≤ 40 | ≥ 80 | ≥ 80
Cc1cc(Br)ccc1-c1c([O-])[n+](Cc2ccc(Cl)nc2)c2ccccn2c1=O [Compound 91] |  | ≤ 40 | ≥ 80 | ≥ 80
O=c1c(-c2cccc(F)c2F)c([O-])[n+](Cc2ccc(Cl)nc2)c2ccccn12 [Compound 89] |  | ≤ 40 | ≥ 80 | ≥ 80
O=c1c(-c2ccc(F)cc2)c([O-])[n+](Cc2ccc(Cl)nc2)c2ccccn12 [Compound 65] | ≤ 40 |  |  | 
COc1cccc(-c2c([O-])[n+](C(C)C(F)(F)F)c3ccccn3c2=O)c1 (centres unmarked) [Compound 243] |  | ≤ 40 | ≥ 80 | 
O=c1c(-c2ccccc2Br)c([O-])[n+](CC(F)(F)F)c2ccccn12 [Compound 377] |  | ≤ 40 | ≥ 80 | ≥ 80
O=C(c1c([O-])[n+](Cc2cnc(Cl)s2)c2ccccn2c1=O)C(F)(F)C(F)(F)C(F)(F)F [Compound 715] |  | ≤ 40 | ≥ 80 | 
O=c1c(-c2ccccc2)c([O-])[n+](CC2CC2)c2ccccn12 [Compound 39] |  | ≤ 40 |  | ≥ 80

— US8552007B2, “Mesoionic pesticides” (E.I. du Pont de Nemours and Company, priority 2008, dated 2013)
